Test results: US20250026849A1 (ARCELLX, published 2025)

Sequences of proteins named here, by UniProt entry; tags and fusion partners are left off. A change or cut given only in a name is not applied to a line headed by its entry.
UniProt P55899: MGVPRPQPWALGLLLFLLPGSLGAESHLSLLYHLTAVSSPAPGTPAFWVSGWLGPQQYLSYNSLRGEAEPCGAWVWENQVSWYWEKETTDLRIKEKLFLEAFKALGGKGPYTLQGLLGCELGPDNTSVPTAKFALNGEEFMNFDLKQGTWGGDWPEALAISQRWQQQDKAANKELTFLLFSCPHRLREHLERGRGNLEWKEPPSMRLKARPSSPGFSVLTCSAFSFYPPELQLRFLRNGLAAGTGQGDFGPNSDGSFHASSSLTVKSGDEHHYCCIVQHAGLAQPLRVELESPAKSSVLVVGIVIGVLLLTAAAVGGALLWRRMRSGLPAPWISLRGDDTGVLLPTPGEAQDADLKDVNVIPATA

Columns and labels:
[1] = molecular target: Biotinylated human FcRn (human) (UniProt P55899); assay: ELISA: adapter coated on the plate, serially diluted biotinylated human FcRn at pH 6.0 or 7.4, streptavidin-HRP, A450
[2] = molecular target: Biotinylated human FcRn (human) (UniProt P55899); assay: ELISA at pH 6.0 and pH 7.4 (FIG. 10)
[3] = molecular target: Biotinylated human FcRn (human) (UniProt P55899); assay: ELISA at pH 6.0 and pH 7.4

Measured: binding

B1: bc40-p26 Adapter (SEQ ID NO: 1085) (designed binder)
chain: DEHHHHHHHHHHKLENLYFQGGGGGSMGSWSEFWVRLGAIRERLDALGGSEAELAAFEKEIAAFESELQAYKGKGNPEVEKLRYTAATIRRFLQAYRHNGGGGSGGGGSGGGGSLEKCFQTENPLECQDKGEEELQKYIQESQALAKRSCGLFQKLGEYYLQNAFLVAYTKKAPQLTSSELMAITRKMAATAATCCQLSEDKLLACGEGAADIIIGHLCIRHEMTPVNPGVGQCCTSSYANRRPCFSSLVVDETYVPPAFSDDKFIFHKDLCQAQGVALQTMKQEFLINLVKQKPQITEEQLEAVIADFSGLLEKCCQGQEQEVCFAEEGQKLISKTRAALGV
binds: all assays above

B2: bc98-p26(Q26-V229)-bc98 (SEQ ID NO: 1132) (designed binder)
chain: DEMGSWSEFWARLGAIRERLDALGGSEAELAAFEKEIAAFESELQAYKGKGNPEVEKLRYTAGTIKRFLQAYRHNGGGGDGGGGSGGGGSGQESQALAKRSCGLFQKLGEYYLQNAFLVAYTKKAPQLTSSELMAITRKMAATAATCCQLSEDKLLACGEGAADIIIGHLCIRHEMTPVNPGVGQCCTSSYANRRPCFSSLVVDETYVPPAFSDDKFIFHKDLCQAQGVALQTMKQEFLINLVKQKPQITEEQLEAVIADFSGLLEKCCQGQEQEVCFAEEGQKLISKTRAALGVGGGGSGGGGSGGGGSMGSWSEFWARLGAIRERLDALGGSEAELAAFEKEIAAFESELQAYKGKGNPEVEKLRYTAGTIKRFLQAYRHNGGGGSGGGGSGGGGSHHHHHHHHHH
binds: all assays above

Results are given in words; binding and its absence hold for the method and conditions named. A result given as binding can be weak or reduced; the word gives no strength.
